No constants are given. Whether binding was seen depends on the method and setting. In cells and extracts the contact can be indirect. Some results given as binding are weak or reduced against the parent protein; the word gives no strength.
Tests used:
[1] = target: connexin 50 (Cx50), endogenous in primary chick lens cells (chicken (endogenous in primary chick lens cells)) (UniProt P36381); test: co-IP; primary chick lens cell lysate (100 mM NaCl, 15 mM EGTA, 15 mM EDTA, 1% NP-40, pH 8.5); IP with anti-Cx50 or anti-β-catenin antibody overnight at 4°C, protein A/G plus agarose beads; cells without TGF-β2
[2] = target: connexin 50 (Cx50), endogenous in primary chick lens cells (chicken (endogenous in primary chick lens cells)) (UniProt P36381); test: co-IP; as a1, but primary chick lens cells treated with 10 ng/mL TGF-β2 before lysis

By UniProt entry, the sequences of proteins in these tests, tags left out. Residues count along the entry.
UniProt P36381: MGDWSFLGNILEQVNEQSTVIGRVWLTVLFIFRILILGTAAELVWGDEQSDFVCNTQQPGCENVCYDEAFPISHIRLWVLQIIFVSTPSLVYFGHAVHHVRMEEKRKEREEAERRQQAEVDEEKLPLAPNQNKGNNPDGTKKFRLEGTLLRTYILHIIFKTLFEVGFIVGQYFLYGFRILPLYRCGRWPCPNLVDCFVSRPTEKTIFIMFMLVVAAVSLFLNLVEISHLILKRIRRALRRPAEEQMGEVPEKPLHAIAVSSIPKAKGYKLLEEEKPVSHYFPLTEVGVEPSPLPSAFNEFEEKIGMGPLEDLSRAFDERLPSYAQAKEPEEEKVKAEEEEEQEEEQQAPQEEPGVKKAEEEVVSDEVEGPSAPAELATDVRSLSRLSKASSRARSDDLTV
UniProt P08641, residues 161-887: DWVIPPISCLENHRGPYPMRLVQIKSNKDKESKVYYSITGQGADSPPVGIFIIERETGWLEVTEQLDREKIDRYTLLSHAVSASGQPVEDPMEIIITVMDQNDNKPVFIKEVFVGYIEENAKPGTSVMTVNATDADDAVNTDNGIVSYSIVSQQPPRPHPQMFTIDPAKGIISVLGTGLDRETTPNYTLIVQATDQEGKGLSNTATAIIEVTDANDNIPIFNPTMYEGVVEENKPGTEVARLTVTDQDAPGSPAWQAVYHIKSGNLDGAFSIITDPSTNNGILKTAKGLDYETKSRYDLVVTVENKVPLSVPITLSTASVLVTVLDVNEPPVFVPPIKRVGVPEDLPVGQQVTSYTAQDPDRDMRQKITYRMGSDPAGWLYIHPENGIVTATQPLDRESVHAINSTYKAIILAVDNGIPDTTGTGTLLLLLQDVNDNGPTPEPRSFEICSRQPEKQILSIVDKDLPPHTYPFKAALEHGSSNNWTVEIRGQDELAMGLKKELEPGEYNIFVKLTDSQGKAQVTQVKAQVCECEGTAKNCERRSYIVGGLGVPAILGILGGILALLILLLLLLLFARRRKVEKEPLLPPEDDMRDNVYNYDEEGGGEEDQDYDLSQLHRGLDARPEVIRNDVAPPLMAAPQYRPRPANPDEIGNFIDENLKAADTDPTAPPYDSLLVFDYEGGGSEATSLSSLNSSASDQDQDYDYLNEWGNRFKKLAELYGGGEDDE

binding [1]: binds
Substance: E-cadherin, endogenous in primary chick lens cells (from UniProt P08641 161-887)
binding [2]: no binding (condition: cells treated with 10 ng/mL TGF-β2)

Source: article PMC12676446
